Measured values taken from the supplement of paper PMC6078165.

System: MDAMB468
Test: relative JC-1 red fluorescence (viability) vs pre-drug, coculture with fibroblast (fraction); higher = more viable cancer cells
Method: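 JC-1 labelled TNBC cells cocultured 1:1 (1,500 cells each) with CellTrace Violet stained primary or stromal fibroblasts in 384-well plates in FluoroBrite medium, treated with one of 42 anticancer drugs at 0.1, 1, 10 or 100 uM. JC-1 red fluorescence (mitochondrial integrity in cancer cells only) was read by plate reader every 8 h for 72 h. Values are normalised to each well's pre-drug value. The stock of one drug was tenfold lower, so its dose labels may be too high.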

CC(C)(C#N)c1cc(Cn2cncn2)cc(C(C)(C)C#N)c1 [Anastrozole]
relative JC-1 red fluorescence
Conditions	8 h	16 h	24 h	32 h	40 h	48 h	56 h	64 h	72 h
0.1 µM, coculture fibroblast: C12385	0.8541	0.755	0.706	0.644	0.591	0.585	0.545	0.515	0.503
0.1 µM, coculture fibroblast: H6013	0.821	0.802	0.752	0.728	0.693	0.701	0.675	0.665	0.624
0.1 µM, coculture fibroblast: H6019	0.81	0.784	0.741	0.692	0.641	0.625	0.571	0.534	0.507
0.1 µM, coculture fibroblast: H6076	0.925	0.952	0.848	0.815	0.739	0.713	0.668	0.642	0.659
0.1 µM, coculture fibroblast: H6231	0.823	0.929	0.8208	0.81	0.752	0.728	0.677	0.646	0.634
0.1 µM, coculture fibroblast: HADF	0.867	0.817	0.741	0.713	0.655	0.641	0.595	0.5807	0.5424
0.1 µM, coculture fibroblast: HCFa	0.8445	0.8304	0.773	0.738	0.682	0.672	0.628	0.588	0.544
0.1 µM, coculture fibroblast: HCPF	0.8754	0.935	0.8569	0.838	0.77376	0.7424	0.678	0.666	0.644
0.1 µM, coculture fibroblast: HHSteC	0.867	0.836	0.787	0.74	0.692	0.69	0.625	0.596	0.552
0.1 µM, coculture fibroblast: HMF	0.824	0.929	0.835	0.8054	0.728	0.697	0.647	0.628	0.606
0.1 µM, coculture fibroblast: HPFa	0.9446	0.875	0.836	0.779	0.743	0.733	0.656	0.621	0.544
0.1 µM, coculture fibroblast: HUF	0.905	0.824	0.785	0.716	0.664	0.633	0.581	0.557	0.527
0.1 µM, coculture fibroblast: Hs5	0.869	0.949	0.885	0.852	0.783	0.749	0.696	0.658	0.668
0.1 µM, coculture fibroblast: Hs27A	0.858	0.799	0.733	0.728	0.668	0.661	0.617	0.589	0.552
0.1 µM, coculture fibroblast: Hs343T	0.87	0.942	0.84	0.781	0.692	0.664	0.611	0.592	0.564
0.1 µM, coculture fibroblast: WS1	0.817	0.742	0.677	0.613	0.555	0.523	0.4931	0.467	0.461
1 µM, coculture fibroblast: C12385	0.8802	0.829	0.773	0.735	0.7073	0.702	0.663	0.64	0.635
1 µM, coculture fibroblast: H6013	0.905	0.877	0.795	0.79	0.771	0.771	0.734	0.725	0.675
1 µM, coculture fibroblast: H6019	0.8438	0.7764	0.769	0.716	0.682	0.674	0.6312	0.6039	0.577
1 µM, coculture fibroblast: H6076	0.929	0.917	0.866	0.8914	0.8223	0.8204	0.791	0.783	0.848
1 µM, coculture fibroblast: H6231	0.825	0.90723	0.827	0.806	0.752	0.74	0.681	0.65	0.643
1 µM, coculture fibroblast: HADF	0.91	0.837	0.778	0.762	0.699	0.692	0.654	0.635	0.597
1 µM, coculture fibroblast: HCFa	0.895	0.8452	0.8041	0.787	0.737	0.73	0.669	0.636	0.575
1 µM, coculture fibroblast: HCPF	0.86579	0.969	0.8221	0.804	0.7381	0.71	0.659	0.64	0.619
1 µM, coculture fibroblast: HHSteC	0.9236	0.886	0.8333	0.796	0.753	0.745	0.678	0.653	0.591
1 µM, coculture fibroblast: HMF	0.8538	0.88	0.862	0.826	0.761	0.74	0.688	0.6629	0.644
1 µM, coculture fibroblast: HPFa	0.9463	0.909	0.824	0.752	0.692	0.689	0.624	0.583	0.503
1 µM, coculture fibroblast: HUF	0.888	0.793	0.747	0.674	0.623	0.601	0.558	0.536	0.515
1 µM, coculture fibroblast: Hs5	0.805	0.896	0.969	0.948	0.881	0.856	0.826	0.802	0.828
1 µM, coculture fibroblast: Hs27A	0.873	0.815	0.784	0.7706	0.723	0.711	0.671	0.645	0.591
1 µM, coculture fibroblast: Hs343T	0.882	0.948	0.861	0.8477	0.7837	0.7649	0.715	0.7	0.685
1 µM, coculture fibroblast: WS1	0.8629	0.788	0.7038	0.6292	0.6011	0.5725	0.539	0.509	0.5
10 µM, coculture fibroblast: C12385	0.8846	0.788	0.742	0.685	0.643	0.616	0.568	0.53	0.51
10 µM, coculture fibroblast: H6013	0.8756	0.862	0.833	0.821	0.813	0.824	0.811	0.799	0.755
10 µM, coculture fibroblast: H6019	0.803	0.789	0.7487	0.6824	0.642	0.6151	0.5652	0.532	0.505
10 µM, coculture fibroblast: H6076	0.933	0.859	0.89048	0.8473	0.7658	0.7388	0.692	0.667	0.6911
10 µM, coculture fibroblast: H6231	0.8337	0.953	0.836	0.822	0.762	0.741	0.685	0.654	0.638
10 µM, coculture fibroblast: HADF	0.8953	0.826	0.775	0.755	0.69	0.682	0.63	0.615	0.578
10 µM, coculture fibroblast: HCFa	0.8706	0.842	0.799	0.763	0.691	0.69	0.633	0.598	0.565
10 µM, coculture fibroblast: HCPF	0.8787	0.9555	0.8989	0.875	0.8112	0.7808	0.7268	0.713	0.6849
10 µM, coculture fibroblast: HHSteC	0.8953	0.8662	0.827	0.788	0.741	0.735	0.661	0.633	0.589
10 µM, coculture fibroblast: HMF	0.842	0.871	0.919	0.873	0.811	0.778	0.714	0.692	0.661
10 µM, coculture fibroblast: HPFa	0.913	0.852	0.794	0.739	0.687	0.676	0.605	0.571	0.502
10 µM, coculture fibroblast: HUF	0.9196	0.842	0.7911	0.7246	0.6825	0.649	0.596	0.572	0.556
10 µM, coculture fibroblast: Hs5	0.865	0.98932	0.938	0.895	0.825	0.8	0.759	0.721	0.744
10 µM, coculture fibroblast: Hs27A	0.8647	0.821	0.7853	0.778	0.72	0.72	0.678	0.651	0.6038
10 µM, coculture fibroblast: Hs343T	0.8798	0.913	0.923	0.885	0.82	0.793	0.735	0.708	0.672
10 µM, coculture fibroblast: WS1	0.866	0.751	0.702	0.64	0.589	0.559	0.527	0.487	0.47
100 µM, coculture fibroblast: C12385	0.8742	0.8264	0.777	0.7236	0.671	0.653	0.606	0.574	0.547
100 µM, coculture fibroblast: H6013	0.89178	0.87	0.839	0.8468	0.825	0.834	0.8005	0.793	0.7339
100 µM, coculture fibroblast: H6019	0.871	0.8251	0.808	0.757	0.721	0.716	0.672	0.641	0.617
100 µM, coculture fibroblast: H6076	0.94	0.96713	0.939	0.946	0.869	0.873	0.852	0.846	0.916
100 µM, coculture fibroblast: H6231	0.82137	0.913	0.861	0.859	0.8197	0.79705	0.752	0.7347	0.723
100 µM, coculture fibroblast: HADF	0.89298	0.82401	0.788	0.791	0.737	0.738	0.705	0.689	0.65
100 µM, coculture fibroblast: HCFa	0.8732	0.866	0.81	0.808	0.73	0.733	0.678	0.642	0.595
100 µM, coculture fibroblast: HCPF	0.8758	0.849	0.912	0.901	0.817	0.801	0.76	0.746	0.736
100 µM, coculture fibroblast: HHSteC	0.9366	0.8731	0.8319	0.823	0.78	0.78	0.714	0.69	0.638
100 µM, coculture fibroblast: HMF	0.881	0.9716	0.9181	0.893	0.8265	0.806	0.76	0.746	0.73
100 µM, coculture fibroblast: HPFa	0.9449	0.9042	0.851	0.8131	0.7599	0.75	0.6665	0.642	0.5681
100 µM, coculture fibroblast: HUF	0.933	0.86	0.806	0.74	0.69	0.647	0.605	0.566	0.53843
100 µM, coculture fibroblast: Hs5	0.786	0.962	0.909	0.8759	0.8169	0.7769	0.732	0.694	0.71
100 µM, coculture fibroblast: Hs27A	0.85	0.804	0.7594	0.777	0.701	0.688	0.639	0.604	0.574
100 µM, coculture fibroblast: Hs343T	0.905	0.99757	0.936	0.919	0.838	0.821	0.774	0.755	0.727
100 µM, coculture fibroblast: WS1	0.9044	0.842	0.8	0.728	0.691	0.656	0.624	0.596	0.576

Values are relative to the signal before dosing, not to a vehicle control; the signal also falls without drug.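 Labels refer to human fibroblasts, largely primary: uterine (C12385, HUF), lung (H6013), bone (Hs27A), adrenal (HADF), skin (WS1), plus mammary HMF and breast cancer-associated Hs343T. Cancer lines are basal-like or mesenchymal-like triple-negative breast cancer. The paper counts as hits responses shifting over 3x the replicate standard deviation. The tissue of the other fibroblasts is not given here.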
